Test results as given in the supplement of paper PMC10849652.
This is one part of the list.

Sequences of proteins named here, by UniProt entry; tags and fusion partners are left off. A change or cut given only in a name is not applied to a line headed by its entry.
UniProt O43156, whole entry, looked up: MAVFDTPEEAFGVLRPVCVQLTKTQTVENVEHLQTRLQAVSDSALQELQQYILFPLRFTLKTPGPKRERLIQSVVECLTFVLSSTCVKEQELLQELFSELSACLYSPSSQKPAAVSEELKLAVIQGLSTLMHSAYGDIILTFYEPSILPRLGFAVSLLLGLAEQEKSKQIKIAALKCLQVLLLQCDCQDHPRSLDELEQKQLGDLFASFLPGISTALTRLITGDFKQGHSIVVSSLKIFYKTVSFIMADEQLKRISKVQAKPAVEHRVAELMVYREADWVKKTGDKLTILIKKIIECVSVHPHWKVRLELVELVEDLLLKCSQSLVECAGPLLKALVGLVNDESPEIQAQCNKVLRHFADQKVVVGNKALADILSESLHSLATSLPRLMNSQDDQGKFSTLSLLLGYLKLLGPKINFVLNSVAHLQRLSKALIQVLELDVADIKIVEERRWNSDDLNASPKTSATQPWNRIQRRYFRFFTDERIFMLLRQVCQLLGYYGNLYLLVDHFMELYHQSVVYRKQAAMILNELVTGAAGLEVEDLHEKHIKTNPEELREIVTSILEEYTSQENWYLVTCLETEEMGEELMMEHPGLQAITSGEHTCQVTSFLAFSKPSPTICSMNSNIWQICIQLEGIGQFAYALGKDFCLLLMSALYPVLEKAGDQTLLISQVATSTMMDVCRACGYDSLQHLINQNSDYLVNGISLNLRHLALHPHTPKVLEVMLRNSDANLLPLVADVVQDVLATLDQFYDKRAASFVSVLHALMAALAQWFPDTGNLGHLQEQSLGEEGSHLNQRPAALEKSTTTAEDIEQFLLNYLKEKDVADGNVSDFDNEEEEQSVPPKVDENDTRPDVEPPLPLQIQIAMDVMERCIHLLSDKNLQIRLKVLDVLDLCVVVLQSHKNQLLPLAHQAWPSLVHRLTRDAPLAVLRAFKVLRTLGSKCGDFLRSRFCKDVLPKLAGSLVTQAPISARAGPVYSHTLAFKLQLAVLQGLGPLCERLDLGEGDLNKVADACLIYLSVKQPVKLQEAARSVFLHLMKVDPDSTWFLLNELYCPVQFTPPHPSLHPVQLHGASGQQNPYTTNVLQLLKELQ
UniProt Q7Z6J9: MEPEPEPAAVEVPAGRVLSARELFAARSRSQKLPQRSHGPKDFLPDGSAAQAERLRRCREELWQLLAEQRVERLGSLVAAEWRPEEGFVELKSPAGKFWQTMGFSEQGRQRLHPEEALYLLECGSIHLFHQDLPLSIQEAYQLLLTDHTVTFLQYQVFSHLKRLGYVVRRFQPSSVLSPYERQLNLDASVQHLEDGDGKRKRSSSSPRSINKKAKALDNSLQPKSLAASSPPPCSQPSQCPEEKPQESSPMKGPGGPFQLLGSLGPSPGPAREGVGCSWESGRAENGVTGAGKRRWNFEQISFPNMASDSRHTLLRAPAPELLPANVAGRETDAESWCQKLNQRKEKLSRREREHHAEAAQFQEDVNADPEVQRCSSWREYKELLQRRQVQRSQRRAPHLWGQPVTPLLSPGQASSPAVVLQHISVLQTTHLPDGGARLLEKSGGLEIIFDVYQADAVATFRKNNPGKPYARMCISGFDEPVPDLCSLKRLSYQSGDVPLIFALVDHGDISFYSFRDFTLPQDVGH
UniProt Q15631: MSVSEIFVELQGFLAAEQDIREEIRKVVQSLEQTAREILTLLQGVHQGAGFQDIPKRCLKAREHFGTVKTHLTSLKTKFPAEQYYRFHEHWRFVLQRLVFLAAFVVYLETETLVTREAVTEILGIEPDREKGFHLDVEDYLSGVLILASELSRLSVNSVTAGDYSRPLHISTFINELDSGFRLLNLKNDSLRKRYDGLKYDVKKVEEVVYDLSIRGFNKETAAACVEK
UniProt Q8IZ69: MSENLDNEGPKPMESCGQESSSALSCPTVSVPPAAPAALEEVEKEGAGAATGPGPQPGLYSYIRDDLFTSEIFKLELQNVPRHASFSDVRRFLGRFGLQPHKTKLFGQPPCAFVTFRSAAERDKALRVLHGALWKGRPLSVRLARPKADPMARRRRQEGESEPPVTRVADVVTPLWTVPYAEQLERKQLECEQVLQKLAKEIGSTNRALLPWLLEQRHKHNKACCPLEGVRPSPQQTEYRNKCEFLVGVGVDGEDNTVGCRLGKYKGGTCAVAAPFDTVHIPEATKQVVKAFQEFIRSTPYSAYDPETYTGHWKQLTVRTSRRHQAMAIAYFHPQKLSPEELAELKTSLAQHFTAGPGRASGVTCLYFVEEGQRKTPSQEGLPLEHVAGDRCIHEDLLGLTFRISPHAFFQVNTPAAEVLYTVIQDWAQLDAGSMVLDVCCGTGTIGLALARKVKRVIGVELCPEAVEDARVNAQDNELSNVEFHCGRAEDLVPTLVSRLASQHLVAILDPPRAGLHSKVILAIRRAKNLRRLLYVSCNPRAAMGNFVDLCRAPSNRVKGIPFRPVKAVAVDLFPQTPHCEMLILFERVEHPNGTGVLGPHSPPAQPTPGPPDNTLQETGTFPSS
UniProt Q6PID6, whole entry, looked up: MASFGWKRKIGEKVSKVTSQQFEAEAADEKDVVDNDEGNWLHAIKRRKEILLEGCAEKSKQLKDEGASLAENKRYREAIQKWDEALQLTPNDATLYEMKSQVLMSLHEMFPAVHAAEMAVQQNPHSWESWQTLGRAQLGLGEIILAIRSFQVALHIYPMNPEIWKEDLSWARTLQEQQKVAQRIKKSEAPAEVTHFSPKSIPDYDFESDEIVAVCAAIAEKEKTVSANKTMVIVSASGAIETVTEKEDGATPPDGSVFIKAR
UniProt Q6DKK2: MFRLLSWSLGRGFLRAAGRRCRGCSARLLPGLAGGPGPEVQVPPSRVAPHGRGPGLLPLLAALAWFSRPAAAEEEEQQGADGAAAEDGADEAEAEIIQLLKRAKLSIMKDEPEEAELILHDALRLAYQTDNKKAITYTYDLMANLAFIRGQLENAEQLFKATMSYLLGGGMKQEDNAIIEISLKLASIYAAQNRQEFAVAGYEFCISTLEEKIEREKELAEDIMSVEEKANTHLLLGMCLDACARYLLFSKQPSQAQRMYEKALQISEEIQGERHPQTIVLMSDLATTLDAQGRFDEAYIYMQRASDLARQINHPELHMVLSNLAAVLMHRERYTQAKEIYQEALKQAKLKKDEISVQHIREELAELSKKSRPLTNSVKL
UniProt Q96F44: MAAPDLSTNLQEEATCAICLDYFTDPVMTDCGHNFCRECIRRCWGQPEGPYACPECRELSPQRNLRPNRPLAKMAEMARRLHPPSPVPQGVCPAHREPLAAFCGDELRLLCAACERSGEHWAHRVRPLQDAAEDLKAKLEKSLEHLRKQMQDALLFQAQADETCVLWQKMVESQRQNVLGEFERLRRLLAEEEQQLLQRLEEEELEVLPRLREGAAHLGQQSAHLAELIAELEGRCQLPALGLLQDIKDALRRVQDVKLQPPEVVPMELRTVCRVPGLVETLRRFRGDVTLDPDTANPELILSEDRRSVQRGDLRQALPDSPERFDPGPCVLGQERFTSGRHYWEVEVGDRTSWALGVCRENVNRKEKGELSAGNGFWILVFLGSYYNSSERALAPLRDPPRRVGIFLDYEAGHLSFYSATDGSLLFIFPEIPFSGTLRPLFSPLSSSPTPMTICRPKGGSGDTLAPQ
UniProt O15164: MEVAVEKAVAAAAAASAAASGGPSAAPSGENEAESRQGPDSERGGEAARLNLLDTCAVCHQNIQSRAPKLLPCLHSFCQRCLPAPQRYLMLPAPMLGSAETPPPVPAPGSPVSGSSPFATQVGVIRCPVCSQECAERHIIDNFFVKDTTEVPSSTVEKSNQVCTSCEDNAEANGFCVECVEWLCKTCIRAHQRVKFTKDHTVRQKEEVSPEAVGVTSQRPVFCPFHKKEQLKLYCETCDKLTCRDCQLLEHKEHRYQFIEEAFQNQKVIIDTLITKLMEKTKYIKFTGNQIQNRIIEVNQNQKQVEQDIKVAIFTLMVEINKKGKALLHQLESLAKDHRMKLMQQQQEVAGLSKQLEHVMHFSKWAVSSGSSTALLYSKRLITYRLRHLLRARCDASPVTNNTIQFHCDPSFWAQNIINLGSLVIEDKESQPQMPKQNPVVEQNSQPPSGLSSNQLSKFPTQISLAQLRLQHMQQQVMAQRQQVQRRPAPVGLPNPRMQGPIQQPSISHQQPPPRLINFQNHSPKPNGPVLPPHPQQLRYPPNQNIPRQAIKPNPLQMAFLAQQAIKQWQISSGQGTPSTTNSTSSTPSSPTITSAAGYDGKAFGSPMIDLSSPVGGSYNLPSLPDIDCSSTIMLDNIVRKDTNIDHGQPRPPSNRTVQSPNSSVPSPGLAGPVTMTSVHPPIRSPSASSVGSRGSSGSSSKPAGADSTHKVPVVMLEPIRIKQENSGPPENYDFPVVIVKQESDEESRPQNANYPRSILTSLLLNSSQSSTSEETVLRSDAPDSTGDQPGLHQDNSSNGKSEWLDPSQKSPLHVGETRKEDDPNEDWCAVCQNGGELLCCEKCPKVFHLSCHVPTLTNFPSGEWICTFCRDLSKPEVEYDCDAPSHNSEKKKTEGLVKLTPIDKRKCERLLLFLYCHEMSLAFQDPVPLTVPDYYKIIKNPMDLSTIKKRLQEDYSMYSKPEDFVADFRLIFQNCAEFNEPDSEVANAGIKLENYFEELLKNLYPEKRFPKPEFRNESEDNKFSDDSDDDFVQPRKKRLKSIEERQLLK
UniProt Q13263: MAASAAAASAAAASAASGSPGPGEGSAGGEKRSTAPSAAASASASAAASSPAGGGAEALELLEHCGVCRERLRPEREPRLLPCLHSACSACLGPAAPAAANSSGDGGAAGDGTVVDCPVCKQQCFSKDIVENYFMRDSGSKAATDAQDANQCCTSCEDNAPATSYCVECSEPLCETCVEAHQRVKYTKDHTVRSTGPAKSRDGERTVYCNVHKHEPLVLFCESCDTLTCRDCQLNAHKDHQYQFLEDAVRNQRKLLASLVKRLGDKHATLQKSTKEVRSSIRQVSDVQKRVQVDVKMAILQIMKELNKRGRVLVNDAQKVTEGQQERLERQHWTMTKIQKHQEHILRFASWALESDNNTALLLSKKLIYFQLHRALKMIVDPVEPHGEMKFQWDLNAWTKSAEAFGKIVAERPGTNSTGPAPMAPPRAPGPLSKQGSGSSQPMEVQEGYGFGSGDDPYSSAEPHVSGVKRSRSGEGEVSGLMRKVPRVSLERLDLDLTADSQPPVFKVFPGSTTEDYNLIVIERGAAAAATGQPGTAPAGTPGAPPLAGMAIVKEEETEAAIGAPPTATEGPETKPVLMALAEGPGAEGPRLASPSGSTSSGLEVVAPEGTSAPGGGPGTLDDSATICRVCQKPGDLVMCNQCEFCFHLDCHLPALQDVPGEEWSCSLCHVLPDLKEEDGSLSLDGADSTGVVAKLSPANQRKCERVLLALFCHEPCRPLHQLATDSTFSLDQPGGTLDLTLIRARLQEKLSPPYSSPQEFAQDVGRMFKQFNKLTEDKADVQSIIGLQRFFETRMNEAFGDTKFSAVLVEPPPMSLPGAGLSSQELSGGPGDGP
UniProt Q99816: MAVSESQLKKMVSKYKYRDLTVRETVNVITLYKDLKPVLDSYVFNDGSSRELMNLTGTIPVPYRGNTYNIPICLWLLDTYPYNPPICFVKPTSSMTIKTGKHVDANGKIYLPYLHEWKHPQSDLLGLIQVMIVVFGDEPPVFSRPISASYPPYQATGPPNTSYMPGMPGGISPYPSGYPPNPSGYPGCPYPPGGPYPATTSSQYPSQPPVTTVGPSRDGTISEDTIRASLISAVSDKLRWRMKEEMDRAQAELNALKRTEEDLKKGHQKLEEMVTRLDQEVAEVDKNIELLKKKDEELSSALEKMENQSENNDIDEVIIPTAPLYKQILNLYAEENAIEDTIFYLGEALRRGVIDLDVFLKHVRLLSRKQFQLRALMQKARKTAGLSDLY
UniProt Q14166: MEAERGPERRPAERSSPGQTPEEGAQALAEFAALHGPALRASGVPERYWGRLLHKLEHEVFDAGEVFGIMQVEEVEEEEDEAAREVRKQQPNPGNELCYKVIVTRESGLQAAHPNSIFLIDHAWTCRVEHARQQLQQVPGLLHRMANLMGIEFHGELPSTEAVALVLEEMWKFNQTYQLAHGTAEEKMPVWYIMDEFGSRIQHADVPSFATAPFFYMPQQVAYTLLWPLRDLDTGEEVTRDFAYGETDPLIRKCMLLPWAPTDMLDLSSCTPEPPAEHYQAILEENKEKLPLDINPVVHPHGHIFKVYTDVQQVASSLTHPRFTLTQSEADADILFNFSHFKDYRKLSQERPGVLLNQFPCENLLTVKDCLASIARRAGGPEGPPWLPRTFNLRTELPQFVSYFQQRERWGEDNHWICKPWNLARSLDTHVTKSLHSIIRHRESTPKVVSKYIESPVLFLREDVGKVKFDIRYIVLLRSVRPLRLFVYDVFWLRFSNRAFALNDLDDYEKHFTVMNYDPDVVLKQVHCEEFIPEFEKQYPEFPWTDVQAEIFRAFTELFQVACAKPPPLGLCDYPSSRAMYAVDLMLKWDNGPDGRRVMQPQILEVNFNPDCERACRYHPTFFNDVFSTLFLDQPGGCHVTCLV

Compound: C1=CC2=NC=CN=C2C=C1/C=C/3\C(=O)NC(=O)S3
Test: log2 fold change, soluble protein after heating vs DMSO (PISA); higher = thermal stabilisation; K562 lysate, 10 uM; active = over 0.2 and 3.5 SD of the protein, either way, in both replicates (recomputed)
Summary of the method: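 A 30 min treatment with 10 μM compound was applied to crude K562 extract at 1 mg/mL protein in PBS pH 7.4 with 1 mM MgCl2. Heating for 3 min spanned 48°C-58°C, after which aliquots were pooled, adjusted to 0.5% NP-40 at 4°C and spun at 21,000xg for 90 min. TMTpro 16plex LC-MS/MS of the supernatant, with channel sums equalised, gave values recorded as log-two fold change in thermal stability against solvent controls, from duplicates.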

log2 fold change, inactive:
TRAP1 (UniProt Q12931) 0.003
TTI1 (UniProt O43156) -0.012
TRNT1 (UniProt Q96Q11) -0.036
TSEN54 (UniProt Q7Z6J9) -0.027
TSN (UniProt Q15631) -0.005
TRMT2A (UniProt Q8IZ69) -0.012
TTC33 (UniProt Q6PID6) 0.036
TRMU (UniProt O75648) -0.112
TSC22D1 (UniProt Q15714) -0.048
TTC19 (UniProt Q6DKK2) 0.011
TRIM11 (UniProt Q96F44) 0.012
TRIP10 (UniProt Q15642) -0.028
TRIM24 (UniProt O15164) -0.018
TRIM28 (UniProt Q13263) -0.003
TRMT1 (UniProt Q9NXH9) 0.01
TRIM44 (UniProt Q96DX7) 0.057
TRAPPC6A isoform 2 (UniProt O75865) -0.055
TRIP10 isoform 2 (UniProt Q15642) -0.048
TRIM32 (UniProt Q13049) 0.032
TSG101 (UniProt Q99816) 0.002
TSTA3 (UniProt Q13630) -0.023
TRIP6 (UniProt Q15654) 0.028
TTLL12 (UniProt Q14166) 0.027

Two records drawn at random from the list so far:
log2 fold change, inactive:
TTLL12 (UniProt Q14166) 0.027
TSTA3 (UniProt Q13630) -0.023
